The results in this text go back to publication PMC11676817, “Antiproliferative and Morphological Analysis Triggered by Drugs Contained in the Medicines for Malaria Venture COVID-Box Against Toxoplasma gondii Tachyzoites” (Microorganisms, 2024).

Bounds are passed on as bounds.

The assay concerns Toxoplasma gondii tachyzoites of the RH strain. Put plainly: microbe, parasite or virus in culture. Particulars: 168 h, read-out: Inhibition of tachyzoite proliferation.

`CCCCc1oc2ccccc2c1C(=O)c1cc(I)c(OCCN(CC)CC)c(I)c1` [amiodarone, Amiodarone]: the inhibition at 1 µM is at least 70%.
